According to the supplement of paper PMC5770031:
This is one part of the list. Repeats in this data set agree poorly, so a single value says little.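 ATM8/balancer (normal ATM) heterozygous flies were crossed on treated food; parents laid eggs 5–6 days, offspring developed ~12 days, so parents and larvae ingested compound. Readout: fraction of emerged adults homozygous for ATM8 versus 2% DMSO controls. Compounds were neutral at 10–20% homozygotes, harmful below 10%, helpful above 20%.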 Numbered stars: 1 amine (or outer) side, 2 acyl side, 3 side chain; on linkers, the order of the positions; unused ones are H or OH. Bridge positions count the residues as written; N and C are the ends. Square brackets hold non-standard residues; d marks the D form. Peptide text beside a SMILES is read from it. * marks the point of attachment. X1 = NC1=N[C@@H]([C@H](N[*:1])C(=O)[*:2])C[C@H](O)N1; ΔAla(Z-3-ureido) = NC(=O)N/C=C(\N)C(=O)O; β3hOrn = NCCC[C@H](N)CC(=O)*; Dap = NC[C@H](N)C(=O)O

System: Drosophila melanogaster ATM8 (temperature-sensitive ATM allele)
Assay: fraction of eclosed F1 progeny that are homozygous ATM8 (rescue of developmental lethality); higher = more rescue of ATM8 developmental lethality; extreme values may be limits of the assay
Settings: compound concentration applied to food 0.2 mM; 21 °C

First: Fc1ccc([C@@H]2CCNC[C@H]2COc2ccc3c(c2)OCO3)cc1
Second: COc1ccc(/C=C/C(=O)c2cc(O)ccc2O)cc1
The “fraction of eclosed F1 progeny that are homozygous ATM8” value (“fraction” for short) of the first is higher: 0.271 for the first, 0.232 for the second.

First: CN(C/C=C/C#CC(C)(C)C)Cc1cccc2ccccc12
Second: CNCCCN1c2ccccc2CCc2ccccc21
The “fraction” value of the first is lower: 0 for the first, 0.0488 for the second.

Compared with O=C(NC1CCCCC1)NC1CCCCC1, C=C1CCC2C(CC2(C)C)C(=O)CCC1O (stereo not drawn) is lower in “fraction” value: 0.0789 for the first, 0.04 for the second.

Going from NCCC[C@H](N)CC(=O)N[C@H]1CNC(=O)[C@H]([C@H]2C[C@H](O)NC(N)=N2)NC(=O)/C(=C/NC(N)=O)NC(=O)[C@H](CO)NC(=O)[C@H](CO)NC1=O (β3hOrn-[Dap]SS[ΔAla(Z-3-ureido)][X1]; lactam 1-C) to CC(=O)OCC1=C(C(=O)O)N2C(=O)[C@@H](NC(=O)Cc3cccs3)[C@H]2SC1, the “fraction” value falls from 0.0476 to 0.0455.

First: NC(CO)C(=O)NNCc1ccc(O)c(O)c1O (stereo not drawn)
Second: O=C(O)CCNC(=O)c1ccc(/N=N/c2ccc(O)c(C(=O)O)c2)cc1
The “fraction” value of the first is higher: 0.135 for the first, 0.0185 for the second.

Compared with C[n+]1ccccc1C=NO, C[n+]1ccccc1/C=N/O is lower in “fraction” value: 0.143 for the first, 0.0455 for the second.

First: CC[n+]1c(-c2ccccc2)c2cc(N)ccc2c2ccc(N)cc21
Second: CCCCc1nc(Cl)c(CO)n1Cc1ccc(-c2ccccc2-c2nnn[nH]2)cc1
The “fraction” value of the first is lower: 0.0741 for the first, 0.222 for the second.

Compared with O=C1OC(CN2CCOCC2)CN1/N=C/c1ccc([N+](=O)[O-])o1 (stereo not drawn), Cc1nc2n(c(=O)c1CCN1CCC(c3noc4cc(F)ccc34)CC1)CCCC2O (stereo not drawn) is lower in “fraction” value: 0.256 for the first, 0 for the second.

First: O=C(O)[C@]1(O)C[C@@H](O)[C@@H](O)[C@H](O)C1
Second: CC1(C)S[C@@H]2[C@H](NC(=O)Cc3ccccc3)C(=O)N2[C@H]1C(=O)O
The “fraction” value of the first is lower: 0.0333 for the first, 0.231 for the second.

First: CC1(C)C2CC(=O)[C@]3(C)C(CC[C@@]4(C)[C@H](c5ccoc5)OC(=O)[C@H]5O[C@]543)[C@@]2(C)C(=O)C[C@H]1O (stereo partly drawn)
Second: COC(=O)C[C@H]1C(C)(C)[C@@H](OC(C)=O)[C@@H]2CC3C4CC(=O)O[C@@H](c5ccoc5)[C@]4(C)CCC3[C@@]1(C)C2=O (stereo partly drawn)
The “fraction” value of the first is higher: 0.17 for the first, 0.0508 for the second.

Compared with Cc1cccc(Nc2ccccc2C(=O)O)c1C, NCC(=O)c1ccccc1 is lower in “fraction” value: 0.231 for the first, 0.0656 for the second.

Going from CCC(C)n1ncn(-c2ccc(N3CCN(c4ccc(OCC5COC(Cn6cncn6)(c6ccc(Cl)cc6Cl)O5)cc4)CC3)cc2)c1=O (stereo not drawn) to CCOc1ccc(NC(=O)CC(C)O)cc1 (stereo not drawn), the “fraction” value falls from 0.158 to 0.1.

Compared with C[C@H]1[C@H](OC(=O)CCC(=O)O)O[C@@H]2O[C@@]3(C)CC[C@H]4[C@H](C)CC[C@@H]1[C@@]24OO3, C=CCCCCCCCCC(=O)O is lower in “fraction” value: 0.0784 for the first, 0 for the second.

First: C=CCSCC=C
Second: CCN(CC)CCNC(=O)COc1ccc(OC)cc1
The “fraction” value of the first is higher: 0.174 for the first, 0.143 for the second.
